Where two headings read alike, the source gives them in different places. Results are given in words; binding and its absence hold for the method and conditions named. Binding seen in cells or lysates may run through a third protein. Some entries that bind do so weakly or less than the wild type. Sequences can lack the tags named with a protein.
Experiments:
Test in all cases: co-IP
Flag-DGAT2 (human) [1] = target: T1, Flag-DGAT2 (human) (UniProt Q96PD7)
T1 sequence: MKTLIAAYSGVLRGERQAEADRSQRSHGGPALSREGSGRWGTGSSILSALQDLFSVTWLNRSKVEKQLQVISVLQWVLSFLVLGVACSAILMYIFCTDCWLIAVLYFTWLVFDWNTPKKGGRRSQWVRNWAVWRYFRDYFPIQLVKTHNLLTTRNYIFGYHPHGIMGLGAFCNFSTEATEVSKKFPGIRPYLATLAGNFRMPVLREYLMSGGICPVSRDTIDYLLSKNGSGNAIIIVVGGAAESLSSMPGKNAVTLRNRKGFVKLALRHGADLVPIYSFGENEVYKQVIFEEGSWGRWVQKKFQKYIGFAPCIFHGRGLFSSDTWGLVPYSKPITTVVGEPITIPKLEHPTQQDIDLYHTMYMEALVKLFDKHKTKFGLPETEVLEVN

Amino acid sequences for entries named in this document (tags omitted).
UniProt P62820: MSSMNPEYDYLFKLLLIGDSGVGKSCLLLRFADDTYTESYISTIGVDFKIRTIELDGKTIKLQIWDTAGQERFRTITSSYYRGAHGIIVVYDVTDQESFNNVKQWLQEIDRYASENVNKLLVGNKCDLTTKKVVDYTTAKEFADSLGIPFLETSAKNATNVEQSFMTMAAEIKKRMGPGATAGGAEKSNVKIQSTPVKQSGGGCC

Flag-GPAT4 (human) [2] = target: T2, Flag-GPAT4 (human) (UniProt Q86UL3)
T2 sequence: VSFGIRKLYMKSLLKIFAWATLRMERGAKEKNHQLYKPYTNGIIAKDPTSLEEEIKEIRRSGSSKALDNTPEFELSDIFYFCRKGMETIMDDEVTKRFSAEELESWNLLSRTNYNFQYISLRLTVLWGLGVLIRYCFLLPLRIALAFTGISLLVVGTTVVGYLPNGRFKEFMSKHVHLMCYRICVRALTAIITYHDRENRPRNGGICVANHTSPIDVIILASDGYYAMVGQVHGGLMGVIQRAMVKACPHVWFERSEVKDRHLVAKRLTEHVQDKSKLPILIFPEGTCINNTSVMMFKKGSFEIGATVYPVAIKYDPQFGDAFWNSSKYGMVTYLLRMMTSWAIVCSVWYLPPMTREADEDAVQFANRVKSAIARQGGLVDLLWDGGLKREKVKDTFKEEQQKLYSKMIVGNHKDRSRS

Flag-DGAT2 (human) [3] = target: T1, Flag-DGAT2 (human); remark: listed apart in the source
Flag-GPAT4 (human) [4] = target: T2, Flag-GPAT4 (human); remark: listed apart in the source
Flag-DGAT2 (human) [5] = target: T1, Flag-DGAT2 (human); remark: listed apart in the source
Flag-MBOAT7 (human) = target: T3, Flag-MBOAT7 (human) (UniProt Q96N66)
T3 sequence: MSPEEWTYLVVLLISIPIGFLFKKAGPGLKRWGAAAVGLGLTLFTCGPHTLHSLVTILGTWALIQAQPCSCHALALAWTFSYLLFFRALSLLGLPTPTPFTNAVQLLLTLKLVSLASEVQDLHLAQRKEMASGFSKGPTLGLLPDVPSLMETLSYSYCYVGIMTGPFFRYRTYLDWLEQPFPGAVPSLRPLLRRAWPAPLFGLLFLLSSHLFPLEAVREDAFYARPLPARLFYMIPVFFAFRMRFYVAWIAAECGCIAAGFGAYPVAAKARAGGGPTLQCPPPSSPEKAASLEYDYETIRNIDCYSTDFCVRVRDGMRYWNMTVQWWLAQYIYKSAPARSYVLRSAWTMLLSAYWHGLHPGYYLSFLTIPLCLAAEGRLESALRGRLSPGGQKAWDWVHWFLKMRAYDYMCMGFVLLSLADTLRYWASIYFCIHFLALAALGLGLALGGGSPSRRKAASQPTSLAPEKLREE

Flag-GPAT4 (human) [6] = target: T2, Flag-GPAT4 (human); remark: listed apart in the source

Measured: binding

GFP-RAB1A (from UniProt P62820 1-205)
binds: Flag-DGAT2 (human) [1] | Flag-GPAT4 (human) [2] | Flag-DGAT2 (human) [3] | Flag-GPAT4 (human) [4] | Flag-DGAT2 (human) [5] | Flag-MBOAT7 (human) | Flag-GPAT4 (human) [6]
